Experimental findings from article PMC12796736 are described below.

The chains behind the UniProt entries cited, without tags or fusion partners.
UniProt P09471: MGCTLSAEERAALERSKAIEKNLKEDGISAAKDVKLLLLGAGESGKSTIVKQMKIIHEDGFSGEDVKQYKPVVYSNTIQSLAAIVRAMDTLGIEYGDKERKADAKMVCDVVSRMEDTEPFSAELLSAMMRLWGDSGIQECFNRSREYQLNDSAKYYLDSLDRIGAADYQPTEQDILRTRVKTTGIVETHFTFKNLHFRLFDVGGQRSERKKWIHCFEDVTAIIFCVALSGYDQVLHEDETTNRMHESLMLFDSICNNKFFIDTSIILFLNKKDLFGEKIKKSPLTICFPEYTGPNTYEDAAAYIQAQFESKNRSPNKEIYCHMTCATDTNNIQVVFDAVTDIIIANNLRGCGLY

Results are given in words; binding and its absence hold for the method and conditions named. Some results given as binding are weak or reduced against the parent protein; the word gives no strength. Sequences can lack the tags named with a protein.

Test [1] deals with T1, MBP-(RASA3 C-terminal region)-His6 fusion protein (human) (UniProt Q14644).
T1 sequence: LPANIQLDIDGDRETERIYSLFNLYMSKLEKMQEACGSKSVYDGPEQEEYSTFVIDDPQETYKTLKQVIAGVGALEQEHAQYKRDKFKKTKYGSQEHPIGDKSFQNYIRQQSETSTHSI
Nature of the test: pull-down; as a9, but G⍺o prebound to GTPγS; with 2 mM CaCl2; both purified.

The target in test [2] is T1, MBP-(RASA3 C-terminal region)-His6 fusion protein (human). Nature of the test: condition: only without added Ca^2+ (G⍺o-GTPγS, 1 μM); pull-down; as a9, but G⍺o prebound to GTPγS; no Ca^2+; both purified.
Test [3] shares this target. The test can be described thus: condition: only without added Ca^2+ (G⍺o-GDP, 1 μM); pull-down; MBP-(RASA3 C-terminal region)-His6 (1 μM) prebound to Ni-NTA resin; G⍺o (1 μM) prebound to GDP; no Ca^2+; same buffer as a5; Coomassie and densitometry, MBP-His6 as background control; both purified.

Take “recombinant human G⍺o (from UniProt P09471 1-354)”: the binding entry is on record as “binds weakly” in test [1], “no binding” in test [2] and “no binding” in test [3].
